Test results taken from patent US7537764.

B1: CR4289 (antibody, V domains shown)
VH: EVQLVQSGAEVKKPGESLRISCKGSGYSFTSNWITWVRQMPGKGLEWMGRIDPSDSYTNYSPSFQGHVTISADKSISTAYLQWSSLKASDTAMYYCARDVVGVGASDYYYYMDVWGQGTTVTVSS
VL: EIVLTQSPGTLSLSPGETATLSCRTSQSVSSSYLGWYQQKPGQAPRLLIYGASIRATGIPARFSGSGSGTEFTLTIDSLQSEDFAVYYCQQYNNWPPITFGQGTRLEIKR
B2: CR4299 (antibody, V domains shown)
VH: QVQLVESGGGVVQPGRSLRLSCAASGFTFSGYAMHWVRQAPGKGLDWVAVISYDGSEKYSADSVKGRFTISRDNSKNTLYLQMNSLRAEDTAVYYCAKESGGPIWYKYYGVDVWGQGTTVTVSS
VL: SYVLTQPPSLSAAPRQRVTISCSGSSSNIGNYGVNWYQQLPGKAPKLLIYYDDLLPSGVSDRFSGSKSGTSASLAISGLQSEDEGDYYCAAWDDTLSAWVFGGGTKLTVLG
B3: SC04-271 (scFv)
scFv: EVQLVETGAEVKKPGESLRISCKGSGYTFNNYWIGWVRQMPGKGLEWMGIIYPGDSDTRYSPSVQGHVTISADKSINTAYLQWSSLKASDTAVYYCARRPGYDYGFYYFDYWGQGTLVTVSSGTGGSGGTGSGTGGSTQSALTQPRSVSGSPGQSVTISCTGTSSDVGGYNYVSWYQHHPGKAPKLMIYDVSNRPLGVSNRFSGSKSGNTASLTISGLQAEDEADYYCSSYTSSSTYVFGTGTHLTVLS
B4: SC04-283 (scFv)
scFv: EVQLVQSGAEVKKSGESLKISCKGSGYTFNTYWIGWVRQMPGKGLEWMGIIYPGDSDTIYSPSFQGQVTISADKSISTAYLQWSSLKASDSAMYYCARLTFRRGYSGSDSFLPPGDFDYWGQGTLVTVSSGTGGSGGTGSGTGGSTDIQMTQSPSTLSASVGDRVTITCRASQSISSWLAWYQQKPGKAPNLLIYAASSLQSGVPSRFSGSGSGTDFTLTISSLQPDDSATYYCQQYNTYPLTFGGGTKVEIKR
B5: SC04-289 (scFv)
scFv: QMQLVQSGAEVKKPGESLRISCKGSGYSFTSNWITWVRQMPGKGLEWMGRIDPSDSYTNYSPSFQGHVTISADKSISTAYLQWSSLKASDTAMYYCARDVVGVGASDYYYYMDVWGKGTTVTVSSGTGGSGGTGSGTGGSTEIVLTQSPGTLSLSPGETATLSCRTSQSVSSSYLGWYQQKPGQAPRLLIYGASIRATGIPARFSGSGSGTEFTLTIDSLQSEDFAVYYCQQYNNWPPITFGQGTRLEIKR
B6: SC04-299 (scFv)
scFv: EVQLVETGGGVVQPGRSLRLSCAASGFTFSGYAMHWVRQAPGKGLDWVAVISYDGSEKYSADSVKGRFTISRDNSKNTLYLQMNSLRAEDTAVYYCAKESGGPIWYKYYGVDVWGQGTTVTVSSGTGGSGGTGSGTGGSTSYVLTQPPSLSAAPRQRVTISCSGSSSNIGNYGVNWYQQLPGKAPKLLIYYDDLLPSGVSDRFSGSKSGTSASLAISGLQSEDEGDYYCAAWDDTLSAWVFGGGTKLTVLG
B7: SC04-311 (scFv)
scFv: EVQLVQSGGGVVQPGRSLRLSCVASGFTFSKDAMHWVRQAPGKGLEWVAVISYDGSDKHYADSVKGRVTISRDNSRKTLYLRMDSLRAEDTALYYCARGYNSGHYFDYWGQGTLITVSSGTGGSGGTGSGTGGSTQSVLTQPPSVSAAPGQKVTISCSGTSSNIGDNYVSWYQHLPGTAPKLLIYDNNKRPSGIPDRFSGSKSGTSATLGVTGLQTGDEADYYCGTWDSSLTAVVFGGGTKLTVLG

What was measured:
[1] = target: West Nile virus strain USA99b (strain 385-99), whole virus (West Nile virus strain 385-99 (USA99b)); test: Western blot or immunoprecipitation of inactivated WNV
[2] = target: West Nile virus strain USA99b (strain 385-99), whole virus (West Nile virus strain 385-99 (USA99b)); test: phage ELISA

Binder | binding [1] | binding [2]
B1 | binds | 
B2 | binds | 
B3 |  | binds
B4 |  | binds
B5 |  | binds
B6 |  | binds
B7 |  | binds

No constants are given. Whether binding was seen depends on the method and setting. Binding calls can cover weak binding; strength is not graded here.
